No constants are given. Whether binding was seen depends on the method and setting. Binding seen in cells or lysates may run through a third protein. Some results given as binding are weak or reduced against the parent protein; the word gives no strength. For some of these results: Tags and fused reporters may be left off the sequences shown.
How the values were obtained:
CBP-Flag = CBP-Flag (UniProt Q92793); assay: co-IP; HEK293T cells cotransfected with tagged expression plasmids for 24 h; lysed in RIPA buffer on ice 30 min; 3 μg anti-tag MAb or nonspecific IgG at 4°C overnight, protein A/G plus agarose 4 h; SDS-PAGE and WB; in some panels gp110-HA or vector was coexpressed and cells were treated with SeV (100 HAU/mL, 16 h), CHX (50 μg/mL) and/or MG132 (20 μM, 4 h)
IKKi-Myc = biological target: T1, IKKi-Myc (UniProt Q14164); assay: as above
T1 sequence: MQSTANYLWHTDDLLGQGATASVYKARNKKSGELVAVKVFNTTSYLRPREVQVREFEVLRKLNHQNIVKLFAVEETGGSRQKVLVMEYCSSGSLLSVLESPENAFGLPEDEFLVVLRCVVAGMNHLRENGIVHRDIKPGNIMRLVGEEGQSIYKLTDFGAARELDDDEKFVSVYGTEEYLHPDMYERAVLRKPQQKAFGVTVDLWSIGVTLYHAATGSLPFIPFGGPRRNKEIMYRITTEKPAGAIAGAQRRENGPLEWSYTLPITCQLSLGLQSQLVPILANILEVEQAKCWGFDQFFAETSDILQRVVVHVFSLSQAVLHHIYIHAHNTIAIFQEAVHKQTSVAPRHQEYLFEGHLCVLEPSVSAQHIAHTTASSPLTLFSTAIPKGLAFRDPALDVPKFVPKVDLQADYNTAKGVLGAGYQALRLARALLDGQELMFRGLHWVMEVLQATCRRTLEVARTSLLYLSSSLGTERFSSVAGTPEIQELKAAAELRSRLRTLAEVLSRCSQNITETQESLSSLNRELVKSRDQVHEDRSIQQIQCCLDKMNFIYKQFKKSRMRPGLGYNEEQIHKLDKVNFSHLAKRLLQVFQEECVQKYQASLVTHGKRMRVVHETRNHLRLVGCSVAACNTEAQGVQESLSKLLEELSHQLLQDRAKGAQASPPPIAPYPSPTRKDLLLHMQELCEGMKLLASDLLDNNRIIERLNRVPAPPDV

Chains of the proteins cited; added tags and fusions are not shown.
UniProt Q92793: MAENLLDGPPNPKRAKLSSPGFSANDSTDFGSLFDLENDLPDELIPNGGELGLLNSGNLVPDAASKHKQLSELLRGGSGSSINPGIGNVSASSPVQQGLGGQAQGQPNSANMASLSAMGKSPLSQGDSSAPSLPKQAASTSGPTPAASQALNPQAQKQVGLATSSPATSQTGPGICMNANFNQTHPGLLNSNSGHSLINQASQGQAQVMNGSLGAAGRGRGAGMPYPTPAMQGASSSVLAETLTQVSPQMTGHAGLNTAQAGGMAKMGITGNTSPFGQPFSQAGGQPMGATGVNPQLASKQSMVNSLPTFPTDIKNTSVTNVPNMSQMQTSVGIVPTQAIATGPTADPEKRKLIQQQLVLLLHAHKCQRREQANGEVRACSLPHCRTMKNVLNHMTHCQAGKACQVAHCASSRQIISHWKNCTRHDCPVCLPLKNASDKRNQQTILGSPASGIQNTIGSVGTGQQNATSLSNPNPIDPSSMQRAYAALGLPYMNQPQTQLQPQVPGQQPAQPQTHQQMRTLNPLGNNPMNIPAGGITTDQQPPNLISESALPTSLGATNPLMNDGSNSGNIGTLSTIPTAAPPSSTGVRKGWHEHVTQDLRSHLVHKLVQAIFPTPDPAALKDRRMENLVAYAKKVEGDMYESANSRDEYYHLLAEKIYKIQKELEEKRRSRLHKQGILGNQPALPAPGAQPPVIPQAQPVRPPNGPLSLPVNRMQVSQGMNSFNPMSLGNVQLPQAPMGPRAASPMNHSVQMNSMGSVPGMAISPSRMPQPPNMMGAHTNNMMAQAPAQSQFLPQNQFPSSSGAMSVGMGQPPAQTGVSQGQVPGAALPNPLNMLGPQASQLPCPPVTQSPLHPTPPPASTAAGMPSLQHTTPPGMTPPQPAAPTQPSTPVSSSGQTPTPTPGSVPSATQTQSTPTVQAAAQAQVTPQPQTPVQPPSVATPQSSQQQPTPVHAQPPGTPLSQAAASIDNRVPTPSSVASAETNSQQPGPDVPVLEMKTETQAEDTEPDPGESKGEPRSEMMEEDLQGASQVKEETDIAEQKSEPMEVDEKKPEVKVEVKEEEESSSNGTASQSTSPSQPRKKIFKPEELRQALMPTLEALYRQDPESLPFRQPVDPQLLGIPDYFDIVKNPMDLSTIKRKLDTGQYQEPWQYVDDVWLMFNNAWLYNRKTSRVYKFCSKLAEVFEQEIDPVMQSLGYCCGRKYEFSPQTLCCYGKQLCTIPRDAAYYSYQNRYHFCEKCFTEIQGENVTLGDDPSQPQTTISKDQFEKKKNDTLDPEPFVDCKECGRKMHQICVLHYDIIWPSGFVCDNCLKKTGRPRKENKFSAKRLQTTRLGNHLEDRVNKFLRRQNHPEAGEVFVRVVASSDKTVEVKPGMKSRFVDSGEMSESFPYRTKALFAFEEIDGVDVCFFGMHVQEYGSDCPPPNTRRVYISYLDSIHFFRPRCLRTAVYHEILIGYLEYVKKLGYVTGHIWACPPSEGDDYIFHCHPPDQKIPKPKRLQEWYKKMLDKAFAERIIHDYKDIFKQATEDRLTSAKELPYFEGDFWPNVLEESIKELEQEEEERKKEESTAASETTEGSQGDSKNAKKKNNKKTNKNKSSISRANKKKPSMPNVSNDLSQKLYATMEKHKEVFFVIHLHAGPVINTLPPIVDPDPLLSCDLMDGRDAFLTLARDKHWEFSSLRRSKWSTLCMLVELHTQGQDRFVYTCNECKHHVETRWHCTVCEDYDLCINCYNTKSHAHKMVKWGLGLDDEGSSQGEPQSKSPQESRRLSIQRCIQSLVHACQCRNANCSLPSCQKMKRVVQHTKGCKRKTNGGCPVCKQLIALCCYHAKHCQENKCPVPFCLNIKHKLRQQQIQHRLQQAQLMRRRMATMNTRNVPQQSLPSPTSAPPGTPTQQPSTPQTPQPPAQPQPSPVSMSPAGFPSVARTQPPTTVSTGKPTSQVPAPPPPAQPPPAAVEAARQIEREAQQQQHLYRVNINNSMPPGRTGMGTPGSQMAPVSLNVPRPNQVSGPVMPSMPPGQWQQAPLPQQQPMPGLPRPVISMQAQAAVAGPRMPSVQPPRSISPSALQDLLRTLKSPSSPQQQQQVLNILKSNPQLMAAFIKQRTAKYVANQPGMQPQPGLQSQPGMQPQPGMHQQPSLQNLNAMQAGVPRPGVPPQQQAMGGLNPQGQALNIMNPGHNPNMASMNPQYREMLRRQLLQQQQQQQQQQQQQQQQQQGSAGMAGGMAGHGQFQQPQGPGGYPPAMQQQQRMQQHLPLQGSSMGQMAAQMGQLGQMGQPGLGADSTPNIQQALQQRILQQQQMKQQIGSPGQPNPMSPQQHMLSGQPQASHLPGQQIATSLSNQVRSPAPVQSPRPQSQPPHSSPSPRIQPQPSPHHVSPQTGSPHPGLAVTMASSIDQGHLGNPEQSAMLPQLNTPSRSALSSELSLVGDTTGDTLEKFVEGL
UniProt Q09472: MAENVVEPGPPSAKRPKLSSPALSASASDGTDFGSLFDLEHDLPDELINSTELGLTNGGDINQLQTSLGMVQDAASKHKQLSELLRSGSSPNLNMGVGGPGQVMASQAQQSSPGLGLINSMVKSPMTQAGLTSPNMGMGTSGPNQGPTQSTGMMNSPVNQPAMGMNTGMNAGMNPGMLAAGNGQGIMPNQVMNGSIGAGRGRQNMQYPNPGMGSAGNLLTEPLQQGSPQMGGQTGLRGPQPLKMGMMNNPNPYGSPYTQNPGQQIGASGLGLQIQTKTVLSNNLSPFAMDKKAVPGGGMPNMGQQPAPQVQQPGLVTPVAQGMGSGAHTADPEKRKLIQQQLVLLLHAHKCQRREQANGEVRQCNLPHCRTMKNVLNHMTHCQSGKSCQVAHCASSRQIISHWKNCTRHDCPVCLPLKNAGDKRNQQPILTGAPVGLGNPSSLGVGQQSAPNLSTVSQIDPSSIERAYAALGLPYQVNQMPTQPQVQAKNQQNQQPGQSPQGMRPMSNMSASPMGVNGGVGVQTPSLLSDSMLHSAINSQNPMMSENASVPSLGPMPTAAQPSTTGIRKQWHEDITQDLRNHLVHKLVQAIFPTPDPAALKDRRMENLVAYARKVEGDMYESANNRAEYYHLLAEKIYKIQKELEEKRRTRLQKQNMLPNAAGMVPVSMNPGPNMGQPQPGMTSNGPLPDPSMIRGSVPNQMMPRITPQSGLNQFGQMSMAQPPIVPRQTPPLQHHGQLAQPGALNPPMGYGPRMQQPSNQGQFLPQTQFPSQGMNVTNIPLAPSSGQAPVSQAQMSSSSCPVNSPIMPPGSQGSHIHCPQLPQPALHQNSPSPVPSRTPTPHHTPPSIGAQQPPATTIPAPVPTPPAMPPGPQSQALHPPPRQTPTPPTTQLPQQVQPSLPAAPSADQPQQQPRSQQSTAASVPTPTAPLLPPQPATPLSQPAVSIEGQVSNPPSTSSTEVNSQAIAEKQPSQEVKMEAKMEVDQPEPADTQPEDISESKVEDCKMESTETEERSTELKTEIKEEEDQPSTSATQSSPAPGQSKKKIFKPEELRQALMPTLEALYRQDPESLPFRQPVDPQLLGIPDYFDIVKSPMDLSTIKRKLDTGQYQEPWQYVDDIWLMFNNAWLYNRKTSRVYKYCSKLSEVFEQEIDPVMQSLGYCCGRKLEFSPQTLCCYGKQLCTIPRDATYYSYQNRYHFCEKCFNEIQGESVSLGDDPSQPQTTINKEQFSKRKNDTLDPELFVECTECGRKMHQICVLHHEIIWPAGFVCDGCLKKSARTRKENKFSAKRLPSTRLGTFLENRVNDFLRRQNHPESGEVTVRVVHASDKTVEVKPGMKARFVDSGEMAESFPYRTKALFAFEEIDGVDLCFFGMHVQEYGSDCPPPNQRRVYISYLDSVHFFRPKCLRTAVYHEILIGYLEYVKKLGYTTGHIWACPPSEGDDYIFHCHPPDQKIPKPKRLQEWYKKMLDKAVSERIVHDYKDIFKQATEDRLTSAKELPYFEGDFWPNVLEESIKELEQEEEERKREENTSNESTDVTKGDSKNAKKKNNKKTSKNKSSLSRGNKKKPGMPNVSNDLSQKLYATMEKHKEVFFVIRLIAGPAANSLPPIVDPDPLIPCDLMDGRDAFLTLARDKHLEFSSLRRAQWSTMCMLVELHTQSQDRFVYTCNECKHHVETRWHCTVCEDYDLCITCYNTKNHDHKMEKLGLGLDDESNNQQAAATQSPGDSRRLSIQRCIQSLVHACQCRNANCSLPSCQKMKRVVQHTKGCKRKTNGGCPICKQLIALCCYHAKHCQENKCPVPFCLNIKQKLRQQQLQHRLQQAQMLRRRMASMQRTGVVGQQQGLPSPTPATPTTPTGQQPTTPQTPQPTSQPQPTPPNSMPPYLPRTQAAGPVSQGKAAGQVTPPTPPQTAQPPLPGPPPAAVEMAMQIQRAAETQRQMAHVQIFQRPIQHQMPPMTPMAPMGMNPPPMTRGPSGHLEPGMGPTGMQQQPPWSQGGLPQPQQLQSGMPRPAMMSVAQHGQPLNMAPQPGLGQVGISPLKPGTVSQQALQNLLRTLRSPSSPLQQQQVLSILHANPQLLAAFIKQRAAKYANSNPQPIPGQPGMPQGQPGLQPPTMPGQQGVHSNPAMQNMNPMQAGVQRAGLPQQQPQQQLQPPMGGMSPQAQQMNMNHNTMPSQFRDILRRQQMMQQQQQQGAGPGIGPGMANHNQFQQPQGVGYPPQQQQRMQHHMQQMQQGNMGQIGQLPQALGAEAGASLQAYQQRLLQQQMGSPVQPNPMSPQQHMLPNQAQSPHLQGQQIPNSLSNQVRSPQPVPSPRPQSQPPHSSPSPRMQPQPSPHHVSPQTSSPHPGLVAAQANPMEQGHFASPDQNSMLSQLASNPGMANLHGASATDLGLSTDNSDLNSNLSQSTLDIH
UniProt Q04206: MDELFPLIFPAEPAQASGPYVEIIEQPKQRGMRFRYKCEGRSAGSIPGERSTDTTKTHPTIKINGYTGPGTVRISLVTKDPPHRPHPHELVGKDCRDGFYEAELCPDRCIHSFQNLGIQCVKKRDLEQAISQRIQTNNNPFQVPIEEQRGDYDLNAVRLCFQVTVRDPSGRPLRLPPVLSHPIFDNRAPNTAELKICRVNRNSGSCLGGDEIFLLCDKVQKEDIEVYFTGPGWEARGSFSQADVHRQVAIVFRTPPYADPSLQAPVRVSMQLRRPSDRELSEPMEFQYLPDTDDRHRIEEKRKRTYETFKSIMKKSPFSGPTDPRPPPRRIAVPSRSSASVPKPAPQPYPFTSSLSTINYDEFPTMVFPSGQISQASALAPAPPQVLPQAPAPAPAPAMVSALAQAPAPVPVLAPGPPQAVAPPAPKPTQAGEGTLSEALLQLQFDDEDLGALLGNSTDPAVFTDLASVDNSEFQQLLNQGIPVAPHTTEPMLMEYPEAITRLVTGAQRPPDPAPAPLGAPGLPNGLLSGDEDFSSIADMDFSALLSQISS
UniProt Q14653: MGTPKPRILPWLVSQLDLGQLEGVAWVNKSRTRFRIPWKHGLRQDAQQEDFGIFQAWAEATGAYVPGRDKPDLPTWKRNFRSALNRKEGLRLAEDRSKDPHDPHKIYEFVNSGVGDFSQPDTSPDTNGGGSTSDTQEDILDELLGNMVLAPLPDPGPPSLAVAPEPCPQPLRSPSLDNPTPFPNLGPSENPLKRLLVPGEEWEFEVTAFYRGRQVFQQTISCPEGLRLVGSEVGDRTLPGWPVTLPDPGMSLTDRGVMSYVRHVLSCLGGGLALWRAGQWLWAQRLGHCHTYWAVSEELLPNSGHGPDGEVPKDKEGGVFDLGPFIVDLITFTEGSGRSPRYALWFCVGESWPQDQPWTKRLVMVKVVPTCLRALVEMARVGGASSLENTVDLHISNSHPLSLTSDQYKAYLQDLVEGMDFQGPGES

p300-Myc = p300-Myc (UniProt Q09472); assay: as above
[1] = biological target: endogenous p65 of HEK293T cells (human (endogenous in HEK293T)) (UniProt Q04206); assay: co-IP; HEK293T cells transfected with gp110-HA or vector, infected with or without SeV 100 HAU/mL for 16 h; rabbit anti-p65 pAb; endogenous IKKi and p65 detected by WB

Molecule: IRF3-HA (from UniProt Q14653 1-427)
- binding (CBP-Flag): binds

Molecule: p65-Flag (from UniProt Q04206 1-551)
- binding (IKKi-Myc): binds

Molecule: IRF3-Flag (from UniProt Q14653 1-427)
- binding (p300-Myc): binds

B1: endogenous IKKi of HEK293T cells (protein, UniProt Q14164 1-716)
chain: MQSTANYLWHTDDLLGQGATASVYKARNKKSGELVAVKVFNTTSYLRPREVQVREFEVLRKLNHQNIVKLFAVEETGGSRQKVLVMEYCSSGSLLSVLESPENAFGLPEDEFLVVLRCVVAGMNHLRENGIVHRDIKPGNIMRLVGEEGQSIYKLTDFGAARELDDDEKFVSVYGTEEYLHPDMYERAVLRKPQQKAFGVTVDLWSIGVTLYHAATGSLPFIPFGGPRRNKEIMYRITTEKPAGAIAGAQRRENGPLEWSYTLPITCQLSLGLQSQLVPILANILEVEQAKCWGFDQFFAETSDILQRVVVHVFSLSQAVLHHIYIHAHNTIAIFQEAVHKQTSVAPRHQEYLFEGHLCVLEPSVSAQHIAHTTASSPLTLFSTAIPKGLAFRDPALDVPKFVPKVDLQADYNTAKGVLGAGYQALRLARALLDGQELMFRGLHWVMEVLQATCRRTLEVARTSLLYLSSSLGTERFSSVAGTPEIQELKAAAELRSRLRTLAEVLSRCSQNITETQESLSSLNRELVKSRDQVHEDRSIQQIQCCLDKMNFIYKQFKKSRMRPGLGYNEEQIHKLDKVNFSHLAKRLLQVFQEECVQKYQASLVTHGKRMRVVHETRNHLRLVGCSVAACNTEAQGVQESLSKLLEELSHQLLQDRAKGAQASPPPIAPYPSPTRKDLLLHMQELCEGMKLLASDLLDNNRIIERLNRVPAPPDV
- binding [1]: binds
